Tested on: human platelet-rich plasma (PRP)
Assay: Inhibition of Convulxin-mediated platelet aggregation in vitro (PRP)
Format: cell-based
Conditions: Table 4, Convulxin-induced aggregation in human PRP, unit inferred
Protocol: The ability for candidate molecules to inhibit syk-mediated platelet functions are tested by measuring the inhibition the GPVI-specific agonist Convulxin-induced human platelet calcium-mobilization or aggregation. Calcium-mobilization is assessed in human washed platelets in a 96-well microtiter format. Aggregation is assessed in a 96-well microtiter assay (see generally the procedures in Jantzen, H. M. et al. (1999) Thromb. Hemost. 81:111-117) or standard cuvette light transmittance aggregometry using human platelet-rich plasma (PRP).
Inhibition of Convulxin-Mediated Platelet Aggregation In Vitro […]
Inhibition of Convulxin-induced aggregation is determined in 96-well flat-bottom microtiter plates using a microtiter plate shaker and plate reader similar to the procedure described by Frantantoni et al., Am. […] The plates are then agitated for 5 min on a microtiter plate shaker and the 5 minute reading is obtained in the microtitre plate reader (Softmax, Molecular Devices, Menlo Park, Calif.). Aggregation is calculated from the decrease of OD at 650 nm at t=5 minutes. […]
Inhibition of Convulxin-induced aggregation was also determined for cuvette light transmittance aggregation assays, serial dilutions (1:2) of test compounds were prepared in 30% DMSO in a 96 well V-bottom plate (final DMSO concentration in the cuvette was 0.3%). […]

Compound: NCC1CCN(c2nc(Nc3ccc(S(N)(=O)=O)cc3)ncc2F)CC1 [Example 32, 4-(4-(4-(aminomethyl)piperidin-1-yl)-5-fluoropyrimidin-2-ylamino)benzenesulfonamide]
- IC50: 4.67 µM
